Data from PMC9479574.
Results are given in words; binding and its absence hold for the method and conditions named. In cells and extracts the contact can be indirect. Binding calls can cover weak binding; strength is not graded here.

By UniProt entry, the sequences of proteins in these tests, tags left out. Where a name states a change or a piece, a line headed by the entry shows the natural chain unless it says otherwise.
UniProt O15269: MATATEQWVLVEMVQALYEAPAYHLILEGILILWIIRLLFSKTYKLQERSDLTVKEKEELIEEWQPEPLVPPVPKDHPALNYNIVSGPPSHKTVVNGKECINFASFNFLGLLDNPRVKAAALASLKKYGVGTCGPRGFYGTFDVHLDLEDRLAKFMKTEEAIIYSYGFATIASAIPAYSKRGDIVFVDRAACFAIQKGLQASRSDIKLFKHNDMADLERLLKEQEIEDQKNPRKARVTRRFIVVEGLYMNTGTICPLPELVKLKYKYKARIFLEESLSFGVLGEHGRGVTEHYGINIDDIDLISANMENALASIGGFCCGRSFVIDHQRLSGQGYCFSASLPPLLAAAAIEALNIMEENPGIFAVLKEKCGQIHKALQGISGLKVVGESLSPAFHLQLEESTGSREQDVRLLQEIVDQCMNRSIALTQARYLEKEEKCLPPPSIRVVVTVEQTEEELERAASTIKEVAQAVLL

Biological target: SPTLC1^FLAG ex2del variant (missing the whole of exon 2; ALS) (human) (UniProt O15269)
Assay: co-IP; FLAG immunoprecipitation (anti-FLAG magnetic M2 beads, 3 hours) of SPTLC1^FLAG and variants from 20,000g membrane fractions solubilized with digitonin (1% wt/vol; 50 mM Tris pH 7.4, 150 mM NaCl, 20 mM MgCl2); eluates immunoblotted for SPTLC2 and ORMDLs

B1: SPTLC2 (protein, UniProt O15270 1-562)
chain: MRPEPGGCCCRRTVRANGCVANGEVRNGYVRSSAAAAAAAAAGQIHHVTQNGGLYKRPFNEAFEETPMLVAVLTYVGYGVLTLFGYLRDFLRYWRIEKCHHATEREEQKDFVSLYQDFENFYTRNLYMRIRDNWNRPICSVPGARVDIMERQSHDYNWSFKYTGNIIKGVINMGSYNYLGFARNTGSCQEAAAKVLEEYGAGVCSTRQEIGNLDKHEELEELVARFLGVEAAMAYGMGFATNSMNIPALVGKGCLILSDELNHASLVLGARLSGATIRIFKHNNMQSLEKLLKDAIVYGQPRTRRPWKKILILVEGIYSMEGSIVRLPEVIALKKKYKAYLYLDEAHSIGALGPTGRGVVEYFGLDPEDVDVMMGTFTKSFGASGGYIGGKKELIDYLRTHSHSAVYATSLSPPVVEQIITSMKCIMGQDGTSLGKECVQQLAENTRYFRRRLKEMGFIIYGNEDSPVVPLMLYMPAKIGAFGREMLKRNIGVVVVGFPATPIIESRARFCLSAAHTKEILDTALKEIDEVGDLLQLKYSRHRLVPLLDRPFDETTYEETED
  binding: binds
